Source: article PMC6789782, “Safety Pharmacological Evaluation of the Coffee Component, Caffeoylquinic Acid, and Its Metabolites, Using Ex Vivo and In Vitro Profiling Assays” (Pharmaceuticals, 2019)

What was measured:
[1] = test system: isolated perfused guinea pig heart; experiment: Langendorff perfused heart assay; settings: laboratory background data of drugs; n = 3
Procedure: After injection of heparin sodium (100 unit/body, AY Pharmaceuticals Co., Ltd.) into the jugular vein, the animals were exsanguinated. […] A stainless-steel cannula was inserted in the aorta, followed by attachment to the Langendorff apparatus (Physio-Tech Co., Ltd., Tokyo, Japan). The attached heart was perfused with KH solution at 37.0 ± 0.2 °C. Before use, the KH solution was aerated by a gas mixture (95%O2 + 5%CO2) for 30 min or longer. The perfusion pressure was maintained at 70 mmHg.
DMSO solutions at 1, 10, and 100 mM were diluted 1000-fold with the KH solution to make test solutions of 1, 10, and 100 μM, respectively. The test solutions were cumulatively applied at a flow rate of 20 mL/min for 10 min with each concentration.
An ECG signal was recorded using electrodes fixed on the ventricular apex (+), and a stainless-steel cannula was inserted in the aorta (−), and LVP was recorded from the balloon catheter placed in the left ventricle. The ECG signals were amplified with an amplifier (DAM50; World Precision Instruments, Inc.) and LVPs were monitored with a Pressure Monitor 4 (Living Systems Instrumentation). Both of the waveforms were recorded with computer software (1000 Hz; iox2 and ecgAUTO3; emka Technologies).
Before measurement, the in-balloon pressure was adjusted so that the diastolic blood pressure would be in the range of 0 to 10 mmHg. The cardiac parameters, such as HR, PR interval, QRS duration, QT interval, QTc interval (Fridericia’s formula: QTc = QT/RR^1/3), LVPSP, left-ventricular end diastolic pressure (LVEDP), and LV dP/dt max, were measured.
Data are expressed as mean (± SD). The measured % changes from the pre-application value were used for analyses. Williams test was carried out between the solvent-control and test compound. Student’s t-test was carried out between the solvent-control and positive-control. […] The data from the solvent control and drug groups were tested by F test for homogeneity of variance. F test was performed at the significance level of 5%. When the variances were homogeneous, Student’s t-test was subsequently performed. When the variances were nonhomogeneous, Welch t-test was selected.

[2] = cited from earlier work

Lowest concentration indicating statistically significant % change to solvent control, HR [1]: 30 µM
Lowest concentration indicating statistically significant % change to solvent control, LV dP/dtmax [1]: 100 µM
Lowest concentration indicating statistically significant % change to solvent control, LVPSP [1]: 10 µM
Lowest concentration indicating statistically significant % change to solvent control, PR [1]: 10 µM
Lowest concentration indicating statistically significant % change to solvent control, QRS [1]: 100 µM
Structure (SMILES): O=C(O)COCCN1CCN([C@H](c2ccccc2)c2ccc(Cl)cc2)CC1 [Levocetirizine]
Lowest concentration indicating statistically significant % change to solvent control, QT [1]: 30 µM
EfTPC (effective free therapeutic plasma concentration) [2]: 1.286 [25] µM
